Binding data for four molecules are collected here from paper PMC7577714, “Regulation of chaperone function by coupled folding and oligomerization” (Science Advances, 2020).

For test [1], the target named is tOmpA, the eight-stranded transmembrane domain of OmpA (residues 1 to 177). Briefly: NMR chemical shift perturbation (apo against complex); [U-2H,15N]-Skp variants without and with unlabeled tOmpA, 2D [15N,1H]-TROSY, 37°C, 20 mM MES pH 6.5, 150 mM NaCl; both purified.
Test [2] shares this target. Briefly: SEC-MALS; Skp(A108L) with added tOmpA; apparent molecular mass; both purified. In general terms: Size exclusion chromatography separates by hydrodynamic size, large species first.

These are yes or no findings as the source states them, for the method shown. Binding calls can cover weak binding; strength is not graded here.

B1: Skp(A108L) (natural protein, E. coli, UniProt P0AEU7 21-161, looked up)
chain: ADKIAIVNMGSLFQQVAQKTGVSNTLENEFKGRASELQRMETDLQAKMKKLQSMKAGSDRTKLEKDVMAQRQTFAQKAQAFEQDRARRSNEERGKLVTRIQTAVKSVLNSQDIDLVVDANAVAYNSSDVKDITADVLKQVK
notes: Monomer-trimer equilibrium strongly shifted toward the monomer; also called Skp(108L); source: E. coli BL21-(λ DE3)-Lemo, purified (Ni-NTA, SEC); not shown: His6, N-terminal, kept
On to B1, for which the binding result in test [1] and in test [2] was “binds” in each case.

B2: Skp(WT), seventeen kilodalton protein, periplasmic chaperone of Escherichia coli (natural protein, E. coli, UniProt P0AEU7 21-161, looked up)
chain: ADKIAIVNMGSLFQQVAQKTGVSNTLENEFKGRASELQRMETDLQAKMKKLQSMKAGSDRTKLEKDVMAQRQTFAQKAQAFEQDRARRSNEERGKLVTRIQTAVKSVANSQDIDLVVDANAVAYNSSDVKDITADVLKQVK
notes: Stands in a monomer-trimer equilibrium; the active form is the homotrimer; The thrombin-cleavable His6-tag of pET28b was not cleaved; Isotope-labelled for NMR in some samples; source: E. coli BL21-(λ DE3)-Lemo, purified (Ni-NTA, SEC); not shown: His6, N-terminal, kept
On to B2, for which the binding entry in test [1] is on record as “binds”.

B3: Skp(A103L) (natural protein, E. coli, UniProt P0AEU7 21-161, looked up)
chain: ADKIAIVNMGSLFQQVAQKTGVSNTLENEFKGRASELQRMETDLQAKMKKLQSMKAGSDRTKLEKDVMAQRQTFAQKAQAFEQDRARRSNEERGKLVTRIQTLVKSVANSQDIDLVVDANAVAYNSSDVKDITADVLKQVK
notes: Monomer-trimer equilibrium essentially as the wild type; source: E. coli BL21-(λ DE3)-Lemo, purified (Ni-NTA, SEC); not shown: His6, N-terminal, kept
As for B3, in test [1], the binding result is given as “binds”.

B4: Skp(A103R) (natural protein, E. coli, UniProt P0AEU7 21-161, looked up)
chain: ADKIAIVNMGSLFQQVAQKTGVSNTLENEFKGRASELQRMETDLQAKMKKLQSMKAGSDRTKLEKDVMAQRQTFAQKAQAFEQDRARRSNEERGKLVTRIQTRVKSVANSQDIDLVVDANAVAYNSSDVKDITADVLKQVK
notes: Monomer-trimer equilibrium shifted toward the monomer; source: E. coli BL21-(λ DE3)-Lemo, purified (Ni-NTA, SEC); not shown: His6, N-terminal, kept
As to B4, the binding result in test [1] is listed as “binds”.
